Data published in US10322136B2, “Composition for inhibiting growth or proliferation of chronic myelogenous leukemia cancer stem cells, and screening method therefor” (HIROSHIMA UNIVERSITY, priority 2015, dated 2019).
At least one structure is not confirmed: it was looked up by name or label, or the drawing left a doubt.

Experiments:
S6 ribosomal protein = assay: Duolink in situ PLA, S6 ribosomal protein phosphorylation in LT-CML cancer stem cells; type: cell-based, mouse; details: 30 min; GlySar or cefadroxil 5 μM; rapamycin 100 nM
Protocol: (§1) To examine phosphorylation of Smad2, Smad3, p38MAPK, AMPK, and S6 ribosomal protein, and Foxo3a-Smad2 and Foxo3a-Smad3 interactions, Duolink® in situ PLA assay (Olink Bioscience) was used. LT-CML stem cells, ST-CML stem cells, CD48^+, MPP, and KLS^− CML cells that were freshly isolated from CML-affected mice, and LT-normal HSCs that were freshly isolated from healthy control littermates, were immediately fixed with 4% paraformaldehyde for 30 min.
(§2) For in vitro inhibitor experiments, LT-CML stem cells were incubated in 3% O2 at 37° C. for 30 min with vehicle (control; artificial gastric fluid solution (900 ml ddH2O containing 2.0 g of NaCl, 7 ml of conc. HCl and 3.2 g of pepsin)), 5 μM Ly364947 (TGF-β type I receptor kinase Alk5 inhibitor; Merck), 5 μM SB203580 (p38MAPK inhibitor; LC Laboratories), 5 μM GlySar (dipeptide transporter inhibitor; Sigma-Aldrich), 5 μM cefadroxil (dipeptide transporter inhibitor; Sigma-Aldrich), or 100 nM rapamycin (mTORC1 inhibitor; Cell Signaling Technologies). […]
(§3) The proximate binding of these antibodies was then detected using Duolink® in situ PLA system which employs a set of two secondary antibodies in which one is conjugated to a minus strand PLA probe and the other is conjugated to a plus strand PLA probe. […] The number of fluorescent foci per single cell was quantified using Duolink®Image Tool software (Olink Bioscience).

Smad3 Ser208 = assay: Duolink in situ PLA, Smad3 Ser208 phosphorylation in LT-CML cancer stem cells; type: cell-based, mouse; details: 30 min; GlySar or cefadroxil 5 μM; rapamycin 100 nM
Protocol: as §1, §2, §3

CO[C@H]1C[C@@H]2CC[C@@H](C)[C@@](O)(O2)C(=O)C(=O)N2CCCC[C@H]2C(=O)O[C@H]([C@H](C)C[C@@H]2CC[C@@H](O)[C@H](OC)C2)CC(=O)[C@H](C)/C=C(\C)[C@@H](O)[C@@H](OC)C(=O)[C@H](C)C[C@H](C)/C=C/C=C/C=C/1C [rapamycin]
phosphorylation of S6 (S6 ribosomal protein): decreased phosphorylation | Smad3 Ser208 phosphorylation (Smad3 Ser208): did not suppress
